Experimental data published in patent US20120094864A1.
Results are given in words; binding and its absence hold for the method and conditions named. Some results given as binding are weak or reduced against the parent protein; the word gives no strength.

Protein sequences, listed by entry. Tags and fused reporters are not part of them. Residues count along the entry.
UniProt P21802, residues 22-821: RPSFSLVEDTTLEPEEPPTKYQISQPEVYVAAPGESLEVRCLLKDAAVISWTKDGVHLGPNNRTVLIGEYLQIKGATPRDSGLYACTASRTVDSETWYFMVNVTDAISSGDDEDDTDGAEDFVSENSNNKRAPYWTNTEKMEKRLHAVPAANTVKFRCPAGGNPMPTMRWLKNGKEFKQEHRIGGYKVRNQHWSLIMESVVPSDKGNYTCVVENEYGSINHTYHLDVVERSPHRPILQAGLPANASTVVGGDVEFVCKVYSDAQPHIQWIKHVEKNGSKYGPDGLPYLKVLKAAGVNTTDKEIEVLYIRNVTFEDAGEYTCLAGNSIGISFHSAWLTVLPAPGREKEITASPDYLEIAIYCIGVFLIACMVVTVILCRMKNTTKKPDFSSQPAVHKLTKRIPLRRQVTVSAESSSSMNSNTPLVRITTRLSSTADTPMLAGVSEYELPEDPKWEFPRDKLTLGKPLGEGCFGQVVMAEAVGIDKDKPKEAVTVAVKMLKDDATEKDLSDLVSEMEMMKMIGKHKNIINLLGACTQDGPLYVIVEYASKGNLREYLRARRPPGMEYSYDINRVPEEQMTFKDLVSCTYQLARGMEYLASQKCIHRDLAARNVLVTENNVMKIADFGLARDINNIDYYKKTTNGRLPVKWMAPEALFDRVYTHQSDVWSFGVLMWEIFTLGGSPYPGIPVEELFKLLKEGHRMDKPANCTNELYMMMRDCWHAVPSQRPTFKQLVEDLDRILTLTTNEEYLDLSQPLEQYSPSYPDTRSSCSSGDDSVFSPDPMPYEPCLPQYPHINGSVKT
UniProt P22455, residues 22-802: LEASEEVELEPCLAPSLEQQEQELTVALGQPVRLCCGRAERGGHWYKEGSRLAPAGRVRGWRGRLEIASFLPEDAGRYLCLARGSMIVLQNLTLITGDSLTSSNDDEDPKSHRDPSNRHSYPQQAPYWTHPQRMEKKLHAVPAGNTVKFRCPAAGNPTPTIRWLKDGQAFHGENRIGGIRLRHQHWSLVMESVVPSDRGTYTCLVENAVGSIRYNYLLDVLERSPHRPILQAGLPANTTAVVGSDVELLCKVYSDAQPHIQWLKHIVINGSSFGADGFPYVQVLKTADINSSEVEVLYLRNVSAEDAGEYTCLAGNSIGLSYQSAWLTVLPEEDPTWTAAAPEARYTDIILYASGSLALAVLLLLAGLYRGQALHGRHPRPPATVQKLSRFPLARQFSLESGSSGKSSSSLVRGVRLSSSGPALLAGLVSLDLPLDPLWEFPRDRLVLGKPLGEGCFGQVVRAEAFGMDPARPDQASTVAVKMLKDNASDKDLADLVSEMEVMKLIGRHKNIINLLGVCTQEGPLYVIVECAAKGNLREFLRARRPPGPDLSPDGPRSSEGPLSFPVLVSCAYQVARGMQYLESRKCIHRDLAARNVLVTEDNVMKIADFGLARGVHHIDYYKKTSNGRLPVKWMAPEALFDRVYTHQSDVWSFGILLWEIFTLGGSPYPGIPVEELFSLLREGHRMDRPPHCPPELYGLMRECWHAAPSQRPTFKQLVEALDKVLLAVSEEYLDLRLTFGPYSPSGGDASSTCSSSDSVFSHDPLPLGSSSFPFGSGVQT
UniProt P11362, residues 22-822: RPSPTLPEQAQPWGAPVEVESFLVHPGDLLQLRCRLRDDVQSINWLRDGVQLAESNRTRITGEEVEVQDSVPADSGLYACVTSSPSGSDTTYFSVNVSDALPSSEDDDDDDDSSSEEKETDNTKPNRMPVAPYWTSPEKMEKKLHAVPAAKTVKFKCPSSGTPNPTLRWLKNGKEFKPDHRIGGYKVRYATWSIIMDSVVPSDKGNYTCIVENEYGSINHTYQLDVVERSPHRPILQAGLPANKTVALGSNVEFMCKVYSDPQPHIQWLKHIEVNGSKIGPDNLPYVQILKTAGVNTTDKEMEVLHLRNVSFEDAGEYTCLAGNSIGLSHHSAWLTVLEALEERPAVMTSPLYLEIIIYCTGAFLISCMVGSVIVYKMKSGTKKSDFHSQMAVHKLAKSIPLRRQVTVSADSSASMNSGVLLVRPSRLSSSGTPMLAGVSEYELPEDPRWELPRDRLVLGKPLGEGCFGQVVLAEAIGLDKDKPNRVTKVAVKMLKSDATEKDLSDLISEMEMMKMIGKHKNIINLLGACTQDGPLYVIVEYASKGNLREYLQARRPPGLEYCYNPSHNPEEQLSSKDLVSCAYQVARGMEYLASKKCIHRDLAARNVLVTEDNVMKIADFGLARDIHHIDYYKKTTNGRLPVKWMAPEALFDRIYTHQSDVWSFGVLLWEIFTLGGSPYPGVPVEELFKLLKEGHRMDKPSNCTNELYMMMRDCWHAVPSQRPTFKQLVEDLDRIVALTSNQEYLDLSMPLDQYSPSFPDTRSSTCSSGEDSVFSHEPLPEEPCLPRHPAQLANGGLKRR
UniProt P09038, residues 143-288: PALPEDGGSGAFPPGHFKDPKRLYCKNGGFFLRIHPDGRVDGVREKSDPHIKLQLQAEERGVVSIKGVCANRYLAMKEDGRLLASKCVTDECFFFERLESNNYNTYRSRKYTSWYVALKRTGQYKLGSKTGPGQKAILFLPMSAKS

Tests used:
[1] = biological target: FGFR2 (cell binding assays) (UniProt P21802); experiment: ligand binding assay on intact cells
[2] = biological target: FGFR4 (cell binding assays) (UniProt P22455); experiment: ligand binding assay on intact cells
[3] = biological target: FGFR1 expressed on murine pre-B 300-19 cells (UniProt P11362); experiment: flow cytometry on transfected 300-19 cells
[4] = biological target: FGFR4 expressed on murine pre-B 300-19 cells (UniProt P22455); experiment: flow cytometry on transfected 300-19 cells

Row | binding [1] | binding [2] | binding [3] | binding [4] | Substance
1 | binds | binds |  |  | FGF2 (from UniProt P09038 143-288) (ligand)
2 |  |  | binds | binds | AlexaFluor488-labelled FGF2 (from UniProt P09038 143-288) (ligand)
